Measurements from US20260240854A1, “COMBINATIONS OF KRAS INHIBITOR AND ATR INHIBITOR FOR THE TREATMENT OF CANCER” (ASTRAZENECA AB, priority 2023, published 2026).
Some of these results come from one statement about several compounds together.

System: CT26^G12C murine colon carcinoma cells
Test: Anti-tumor study, CT26^G12C tumors grown subcutaneously in immunocompetent BALB/c mice
Format: in vivo
Details: Example 5, range given jointly for the adagrasib and sotorasib groups
Protocol: All pathogen-free animals used in the studies below were housed in a controlled, pathogen-free environment with the following conditions: temperature (19-23° C.), humidity (55% 10%), photoperiod (12 h light/dark cycle), and air exchange. Animals were housed in individually vented cages, with food and water provided ad libitum.
Following testing materials were used for the preclinical, in vivo studies below: vehicle (0.5% HPMC/0.1% Tween 80), AZD4625 (0.5% HPMC/0.1% Tween 80), Compound of Formula IV (0.5% HPMC/0.1% Tween 80) and AZD6738 (10% DMSO/40% PG/50% WFI). For the monotherapies, the vehicle and the inhibitors were dosed orally in a volume of 0.05-0.1 mL/10 g. […]
Tumors were measured three times a week by caliper and the volumes were calculated using elliptical formula (pi/6×width×width×length). Animal bodyweight and tumor condition were also recorded for the duration of the study. […]
(§1) For the study, CT26^G12C murine colon carcinoma cells, engineered to express the KRAS^G12C mutation, were grown subcutaneously in BALB/c mice with an intact immune system. […] Tumor growth and bodyweights of animals were monitored during and post-treatment. […]
as §1

Compound | Mice remaining at study end
C=CC(=O)N1CCN(c2nc(=O)n(-c3c(C)ccnc3C(C)C)c3nc(-c4c(O)cccc4F)c(F)cc23)[C@@H](C)C1 (atropisomer, axis not shown) [sotorasib, reference compound] | 0-10%
C=C(F)C(=O)N1CCN(c2nc(OC[C@@H]3CCCN3C)nc3c2CCN(c2cccc4cccc(Cl)c24)C3)C[C@@H]1CC#N [adagrasib, reference compound] | 0-10%
